This experiment deals with BDF1 mice, P388 leukemia ip, median survival T/C. Briefly: NCI In Vivo Anticancer Drug Screen. Data for tumor model P388 Leukemia (intraperitoneal) in B6D2F1 (BDF1) mice. The note with it: T/C endpoint: median survival time, higher T/C = longer survival. The gist of the method: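 Mice carrying the transplantable tumour receive compound or vehicle. Survival is followed in each arm, and the treated measure is divided by the vehicle measure.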

[1] abbreviates: dose: 200.0 mg/kg/injection, schedule: Q01DX009 (ip), vehicle: saline with Tween-80.
[2] abbreviates: dose: 100.0 mg/kg/injection, schedule: Q01DX009 (ip), vehicle: saline with Tween-80.
[3] abbreviates: dose: 25.0 mg/kg/injection, schedule: Q04DX003 (ip), vehicle: Klucel (hydroxypropylcellulose) (HPC).
The mark [4] stands for this setting: dose: 50.0 mg/kg/injection, schedule: Q04DX003 (ip), vehicle: Klucel (hydroxypropylcellulose) (HPC).
Setting [5] is: dose: 100.0 mg/kg/injection, schedule: Q04DX003 (ip), vehicle: Klucel (hydroxypropylcellulose) (HPC).
Where [6] appears, read: dose: 200.0 mg/kg/injection, schedule: Q04DX003 (ip), vehicle: Klucel (hydroxypropylcellulose) (HPC).
Where [7] appears, read: dose: 400.0 mg/kg/injection, schedule: Q04DX003 (ip), vehicle: saline with Tween-80.

The list shows only some results of the screen, not a fair sample: it gathers tests that were run many times, whatever their T/C, doses with no T/C, and many T/C values between a quarter and a half above the control. Other doses and runs of a compound stand elsewhere. T/C is the treated group as % of the vehicle group. Some doses have a count of surviving animals in place of a T/C: the source holds a T/C of zero for them, seemingly a mark for toxic or unscored doses. Some doses without a T/C left all or most animals alive at the check, yet need not have been tolerated: survival well below the control is almost never listed, so the zero probably covers shortened survival too. Survivors were counted at the toxicity check, usually on the fifth day, unless a day is given; later deaths do not show. Schedules are NCI's codes, taken here to give the interval after Q, in days (D) or hours (H), and the number of doses after X. Where survival is the endpoint, this PubChem deposit counts one and a half times the control or more as active, and values a quarter to a half above the control carry no call in these data; other NCI protocols may use other cut-offs. Some T/C values are followed by the survivors on the day toxicity was checked, most often the fifth; where none is given, no animal had died by that day. Some entries were tested several times; their values stand side by side, smallest first.

`COCCn1c2nc(=O)n(-c3ccccc3)c(=O)c-2nc2c1CCCC2`: the survivor count under setting [1] is given as 5 of 6.
Consider `Clc1ncnc2nc[nH]c12`, for which the survivor count (dose: 30.0 mg/kg/injection, schedule: Q01DX010 (ip), vehicle: saline) is 6 of 6 and the survivor count (dose: 60.0 mg/kg/injection, schedule: Q01DX010 (ip), vehicle: saline) is 6 of 6.
Take `CC(=O)Nc1ccc2c(c1)C[N+](C)(C1CCCCC1)CO2` (centres undefined): the survivor count under setting [2] is recorded as 4 of 6.
As to `ClCc1c2ccccc2c(CCl)c2ccccc12`, the T/C (dose: 0.5 mg/kg/injection, schedule: Q04DX003 (ip), vehicle: Klucel (hydroxypropylcellulose) (HPC)) was 126 % of control; the T/C (dose: 0.67 mg/kg/injection, schedule: Q01DX009 (ip), vehicle: saline) was 140 % of control; the T/C (dose: 0.75 mg/kg/injection, schedule: Q01DX009 (ip), vehicle: Klucel (hydroxypropylcellulose) (HPC)) is 142 % of control; the T/C (dose: 0.8 mg/kg/injection, schedule: Q04DX003 (ip), vehicle: Klucel (hydroxypropylcellulose) (HPC)) is 130 % of control; the T/C (dose: 1.3 mg/kg/injection, schedule: Q04DX003 (ip), vehicle: Klucel (hydroxypropylcellulose) (HPC)) is 141 % of control; the T/C (dose: 12.5 mg/kg/injection, schedule: Q04DX003 (ip), vehicle: Klucel (hydroxypropylcellulose) (HPC)) was 146 % of control. Also, the T/C reads like this: (dose: 18.0 mg/kg/injection, schedule: Q04DX003 (ip), vehicle: Klucel (hydroxypropylcellulose) (HPC)) 145 % of control; under setting [3], 142 % of control. For the same compound, the survivor count runs as follows: (dose: 12.0 mg/kg/injection, schedule: Q01DX009 (ip), vehicle: Klucel (hydroxypropylcellulose) (HPC)) 6 of 6; under setting [4], 6 of 6; under setting [5], 6 of 6; under setting [6], 6 of 6; (dose: 400.0 mg/kg/injection, schedule: Q04DX003 (ip), vehicle: Klucel (hydroxypropylcellulose) (HPC)) 5 of 6.
`N/C(=N\[N+](=O)[O-])N(CCCCl)N=O`: the T/C was 128 % of control [9 of 10 alive] (dose: 18.0 mg/kg/injection, schedule: Q01DX009 (ip), vehicle: Klucel (hydroxypropylcellulose) (HPC)); 127 % of control (dose: 37.5 mg/kg/injection, schedule: Q01DX009 (ip), vehicle: other); 149 % of control (dose: 50.0 mg/kg/injection, schedule: Q01DX009 (ip), vehicle: saline with Tween-80); 127 % of control (dose: 75.0 mg/kg/injection, schedule: Q01DX009 (ip), vehicle: other); 126 % of control (dose: 75.0 mg/kg/injection, schedule: Q01DX009 (ip), vehicle: saline with Tween-80); 131 % of control under setting [7]. The survivor count is, setting by setting: under setting [2], 4 of 6; (dose: 150.0 mg/kg/injection, schedule: Q01DX009 (ip), vehicle: other) 2 of 6; under setting [1], 3 of 6; (dose: 264.0 mg/kg/injection, schedule: Q04DX003 (ip), vehicle: saline sonified) 6 of 6; (dose: 400.0 mg/kg/injection, schedule: Q01DX009 (ip), vehicle: saline with Tween-80) 0 of 6; (dose: 400.0 mg/kg/injection, schedule: Q04DX003 (ip), vehicle: saline sonified) 5 of 6.
With `O=C(O)CCC1(c2ccccc2)CCCC1=O` (centres undefined), the survivor count (dose: 3.12 mg/kg/injection, schedule: Q01DX009 (ip), vehicle: water) is listed as 5 of 6; the survivor count (dose: 12.5 mg/kg/injection, schedule: Q01DX009 (ip), vehicle: water) is 6 of 6; the survivor count (dose: 25.0 mg/kg/injection, schedule: Q01DX009 (ip), vehicle: water) is recorded as 6 of 6.
In the case of `CC(N)C(=O)O` (centres undefined), the survivor count (dose: 400.0 mg/kg/injection, schedule: Q04DX003 (ip), vehicle: saline) was 6 of 6.
As to `CC1=C(O)/C(=C/C(C)CCC/C(C)=C/CC/C(C)=C/CCc2ccoc2)OC1=O` (centres undefined), the T/C (dose: 1.25 mg/kg/injection, schedule: Q01DX009 (ip), vehicle: saline with Tween-80) was 131 % of control.
Take `NNc1ncnc2c1ccn2C1OC(CO)C(O)C1O` (centres undefined): the T/C by setting is: (dose: 16.5 mg/kg/injection, schedule: Q01DX009 (ip), vehicle: saline with Tween-80) 140 % of control; (dose: 25.0 mg/kg/injection, schedule: Q01DX009 (ip), vehicle: saline with Tween-80) 145 % of control. Moreover, the survivor count under setting [2] is given as 0 of 6.
Consider `Cc1nc(NN)c(C(N)=O)nc1C`, for which the survivor count runs as follows: (dose: 100.0 mg/kg/injection, schedule: Q01DX009 (ip), vehicle: saline) 4 of 6; (dose: 100.0 mg/kg/injection, schedule: Q04DX003 (ip), vehicle: saline) 3 of 6; (dose: 200.0 mg/kg/injection, schedule: Q01DX009 (ip), vehicle: saline) 0 of 6; (dose: 200.0 mg/kg/injection, schedule: Q04DX003 (ip), vehicle: saline) 2 of 6; (dose: 400.0 mg/kg/injection, schedule: Q01DX009 (ip), vehicle: saline) 0 of 6.
For `N#CCCN1c2ccccc2Sc2ccccc21`, the survivor count runs as follows: under setting [3], 6 of 6; under setting [4], 6 of 6; under setting [5], 6 of 6; under setting [6], 6 of 6.
Consider `[C-]#[N+]C(C)Cc1ccccc1` (centres undefined), for which the survivor count was 0 of 6 (dose: 100.0 mg/kg/injection, schedule: Q04DX003 (ip), vehicle: saline with Tween-80); 0 of 6 (dose: 200.0 mg/kg/injection, schedule: Q04DX003 (ip), vehicle: saline with Tween-80); 0 of 6 under setting [7].
For `CCOC(=O)CCN(CCN(C)C)c1cc(O)c2c(c1O)C(=O)c1ccccc1C2=O`, the T/C is, setting by setting: (dose: 100.0 mg/kg/injection, schedule: Q01DX005 (ip), vehicle: saline with Tween-80) 138 % of control; (dose: 200.0 mg/kg/injection, schedule: Q01DX005 (ip), vehicle: saline with Tween-80) 148 % of control.
Turning to `O=C(O)C1CCC2(CCCCC2)CC1`, the T/C runs as follows: (dose: 50.0 mg/kg/injection, schedule: Q04DX003 (ip), vehicle: water, evaluated on day 20) 101 % of control; (dose: 50.0 mg/kg/injection, schedule: Q04DX003 (ip), vehicle: water, evaluated on day 30) 102 [5 of 6 alive] and 104 % of control; (dose: 100.0 mg/kg/injection, schedule: Q04DX003 (ip), vehicle: water, evaluated on day 20) 130 % of control; (dose: 100.0 mg/kg/injection, schedule: Q04DX003 (ip), vehicle: water, evaluated on day 30) 91 % of control; (dose: 200.0 mg/kg/injection, schedule: Q04DX003 (ip), vehicle: water, evaluated on day 20) 106 % of control [5 of 6 alive]; (dose: 200.0 mg/kg/injection, schedule: Q04DX003 (ip), vehicle: water, evaluated on day 30) 94 [5 of 6 alive] and 100 % of control. Further, the survivor count (dose: 50.0 mg/kg/injection, schedule: Q04DX003 (ip), vehicle: water) is 6 of 6; the survivor count (dose: 100.0 mg/kg/injection, schedule: Q04DX003 (ip), vehicle: water) is recorded as 5 of 6; the survivor count (dose: 200.0 mg/kg/injection, schedule: Q01DX009 (ip), vehicle: water) was 4 of 6; the survivor count (dose: 200.0 mg/kg/injection, schedule: Q04DX003 (ip), vehicle: water) was 6 of 6; the survivor count (dose: 400.0 mg/kg/injection, schedule: Q04DX003 (ip), vehicle: water) is 4 of 6.
Consider `Cc1c2cnccc2c(C)c2c1c1ccccc1n2CC1CO1` (centres undefined), for which the T/C was 145 % of control (dose: 4.12 mg/kg/injection, schedule: Q01DX009 (ip), vehicle: Klucel (hydroxypropylcellulose) (HPC)) and 140 % of control (dose: 6.25 mg/kg/injection, schedule: Q01DX009 (ip), vehicle: Klucel (hydroxypropylcellulose) (HPC)).

The values are drawn from PubChem BioAssay AID328 (DTP/NCI, 2004).
